In paper doi:10.1101/2022.01.21.475743:

How the values were obtained:
[1] = biological target: Claspin ST27/A mutant, Flag-tagged (UniProt Q9HAW4); test: pull-down
[2] = biological target: His-tagged 897-1209aa Claspin polypeptide, ST/A mutant (UniProt Q9HAW4); test: pull-down
[3] = biological target: N-terminal polypeptide of Claspin (#2), C-terminally Flag-tagged; test: pull-down
[4] = biological target: N-terminal polypeptide of Claspin (#26), C-terminally Flag-tagged; test: pull-down
[5] = biological target: N-terminal polypeptide of Claspin (#2), C-terminally Flag-tagged; test: co-IP
[6] = biological target: N-terminal polypeptide of Claspin (#26), C-terminally Flag-tagged; test: co-IP

- binding [1]: binds
- binding [2]: binds weakly
- binding [3]: binds weakly
- binding [4]: binds weakly
B1: purified PDK1 (Carna Bioscience) (enzyme, UniProt O15530 1-556)
chain: MARTTSQLYDAVPIQSSVVLCSCPSPSMVRTQTESSTPPGIPGGSRQGPAMDGTAAEPRPGAGSLQHAQPPPQPRKKRPEDFKFGKILGEGSFSTVVLARELATSREYAIKILEKRHIIKENKVPYVTRERDVMSRLDHPFFVKLYFTFQDDEKLYFGLSYAKNGELLKYIRKIGSFDETCTRFYTAEIVSALEYLHGKGIIHRDLKPENILLNEDMHIQITDFGTAKVLSPESKQARANSFVGTAQYVSPELLTEKSACKSSDLWALGCIIYQLVAGLPPFRAGNEYLIFQKIIKLEYDFPEKFFPKARDLVEKLLVLDATKRLGCEEMEGYGPLKAHPFFESVTWENLHQQTPPKLTAYLPAMSEDDEDCYGNYDNLLSQFGCMQVSSSSSSHSLSASDTGLPQRSGSNIEQYIHDLDSNSFELDLQFSEDEKRLLLEKQAGGNPWHQFVENNLILKMGPVDKRKGLFARRRQLLLTEGPHLYYVDPVNKVLKGEIPWSQELRPEAKNFKTFFVHTPNRTYYLMDPSGNAHKWCRKIQEVWRQRYQSHPDAAVQ

- binding [5]: no binding
- binding [6]: no binding
B2: PDK1 (endogenous, 293T) (protein, UniProt O15530 1-556)
chain: B1 chain
modifications: phosphoserine at 241 (the form told to interact with Claspin in Fig. 5A)

Results are given in words; binding and its absence hold for the method and conditions named. For part of these data: A result given as binding can be weak or reduced; the word gives no strength. For part of these data: Binding seen in cells or lysates may run through a third protein. One block for each binder: values may come before it.
